Assay results published in patent US11366103B2, “Multi-well micropatterning by ablation” (Massachusetts Institute of Technology, priority 2006, dated 2022).
Some results were stated once for a whole list of compounds, not compound by compound. At least one compound was matched to its structure with a doubt left.

System: CYP1A
Assay: CYP450 induction in micropatterned human co-cultures: CYP1A
Details: inducers 50 μM, 3-4 days, vs vehicle-only controls
Experimental: Cultures were treated for 3-4 days before incubation with fluorometric or conventional CYP450 substrates. All data was normalized to vehicle-only controls (fold change of 1). […] Substrate/inhibitor combinations: BFC/ketoconazole (CYP3A4), MFC/sulfaphenazole (CYP2C9), Coumarin/methoxsalen (CYP2A6), and 7-Hydroxycoumarin/Salicylamide (Glucuronidation). […] Data were normalized to vehicle-only controls.
Stock solutions of prototypic CYP450 inducers (Sigma) were made in Dimethylsulfoxide (DMSO), except for Phenobarbital, which was dissolved in water. […] Control cultures were treated with vehicle (DMSO) alone for calculations of fold induction. To enable comparisons across inducers, DMSO levels were kept constant at 0.1% (v/v) for all conditions.

Question: For `O=c1cc(-c2ccccc2)oc2ccc3ccccc3c12` [β-Naphthoflavone], which “induction of CYP1A activity” value is on record?
Answer: The value was greater than 10 fold.
